B1: E. coli FtsZ (wild type) [E. coli] / ClpX(E185Q) [E. coli] (parent)
chain 1: MTDKRKDGSGKLLYCSFCGKSQHEVRKLIAGPSVYICDECVDLCNDIIREEIKEVAPHRERSALPTPHEIRNHLDDYVIGQEQAKKVLAVAVYNHYKRLRNGDTSNGVELGKSNILLIGPTGSGKTLLAETLARLLDVPFTMADATTLTEAGYVGEDVENIIQKLLQKCDYDVQKAQRGIVYIDQIDKISRKSDNPSITRDVSGEGVQQALLKLIEGTVAAVPPQGGRKHPQQEFLQVDTSKILFICGGAFAGLDKVISHRVETGSGIGFGATVKAKSDKASEGELLAQVEPEDLIKFGLIPEFIGRLPVVATLNELSEEALIQILKEPKNALTKQYQALFNLEGVDLEFRDEALDAIAKKAMARKTGARGLRSIVEAALLDTMYDLPSMEDVEKVVIDESVIDGQSKPLLIYGKPEAQQASGE
chain 2: MFEPMELTNDAVIKVIGVGGGGGNAVEHMVRERIEGVEFFAVNTDAQALRKTAVGQTIQIGSGITKGLGAGANPEVGRNAADEDRDALRAALEGADMVFIAAGMGGGTGTGAAPVVAEVAKDLGILTVAVVTKPFNFEGKKRMAFAEQGITELSKHVDSLITIPNDKLLKVLGRGISLLDAFGAANDVLKGAVQGIAELITRPGLMNVDFADVRTVMSEMGYAMMGSGVASGEDRAEEAAEMAISSPLLEDIDLSGARGVLVNITAGFDLRLDEFETVGNTIRAFASDNATVVIGTSLDPDMNDELRVTVVATGIGMDKRPEITLVTNKQVQQPVMDRYQQHGMAPLTQEQKPVAKVVNDNAPQTAKEPDYLDIPAFLRKQAD

Variants of: B1
Assay: co-pelleting assay (Coomassie-stained SDS-PAGE, densitometry)
Settings: with ClpX(E185Q) [E. coli]; 1.5 pmol ClpX(E185Q); in the presence of GTP; parent: 6.5; read off a plot

response (fmol ClpX(E185Q) / pmol FtsZ) | Variant
1.8 | chain 2 K356A V357A V358A

Same assay, conditions: with ClpX(E185Q) [E. coli]; 5 pmol ClpX(E185Q); in the presence of GTP; parent: 22; read off a plot

response (fmol ClpX(E185Q) / pmol FtsZ) | Variant
24 | chain 2 K356A V357A V358A

Same assay, conditions: with ClpX(E185Q) [E. coli]; 12.5 pmol ClpX(E185Q); in the presence of GTP; parent: 47; read off a plot

response (fmol ClpX(E185Q) / pmol FtsZ) | Variant
50 | chain 2 K356A V357A V358A

Source: paper PMC3983244
